Results are given in words; binding and its absence hold for the method and conditions named. Some binding calls cover weakened binding; strength is not graded here.
Tests used:
[1] = target: full-length human hepatocyte growth factor (HGF), wild type (human) (UniProt P14210); assay: cryo-EM structure; c-MET927-LZ mixed with HGF and heparin (Tinzaparin sodium) 1:1:4, complex isolated by SEC in 20 mM Hepes pH 7.5, 100 mM NaCl; 2 mM fluorinated Fos-Choline-8 added before freezing; both purified
[2] = target: c-MET extracellular domain (residues 1-927), tags cleaved (human) (UniProt P08581); assay: SEC; c-MET and HGF in the absence of heparin; both purified

Amino acid sequences for entries named in this document (tags omitted). Residues count along the entry.
UniProt P14210, residues 32-728: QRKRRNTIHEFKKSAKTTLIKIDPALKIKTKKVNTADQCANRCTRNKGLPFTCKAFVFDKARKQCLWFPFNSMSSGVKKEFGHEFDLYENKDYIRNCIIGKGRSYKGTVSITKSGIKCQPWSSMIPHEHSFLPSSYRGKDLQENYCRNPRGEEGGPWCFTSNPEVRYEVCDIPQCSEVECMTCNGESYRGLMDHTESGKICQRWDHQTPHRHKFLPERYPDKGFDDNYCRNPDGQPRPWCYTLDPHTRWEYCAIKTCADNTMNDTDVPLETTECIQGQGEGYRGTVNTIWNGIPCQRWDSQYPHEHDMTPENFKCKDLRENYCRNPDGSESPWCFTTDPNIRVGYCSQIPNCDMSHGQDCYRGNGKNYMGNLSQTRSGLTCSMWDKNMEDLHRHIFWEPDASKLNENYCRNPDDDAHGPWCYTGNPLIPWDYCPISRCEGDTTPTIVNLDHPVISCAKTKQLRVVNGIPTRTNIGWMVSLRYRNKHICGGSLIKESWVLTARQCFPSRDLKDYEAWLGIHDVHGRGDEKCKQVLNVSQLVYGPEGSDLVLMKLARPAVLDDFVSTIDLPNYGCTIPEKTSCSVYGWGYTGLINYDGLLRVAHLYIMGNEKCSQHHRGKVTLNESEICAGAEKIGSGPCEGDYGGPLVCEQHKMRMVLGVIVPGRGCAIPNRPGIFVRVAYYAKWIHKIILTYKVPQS
UniProt P08581, residues 25-927: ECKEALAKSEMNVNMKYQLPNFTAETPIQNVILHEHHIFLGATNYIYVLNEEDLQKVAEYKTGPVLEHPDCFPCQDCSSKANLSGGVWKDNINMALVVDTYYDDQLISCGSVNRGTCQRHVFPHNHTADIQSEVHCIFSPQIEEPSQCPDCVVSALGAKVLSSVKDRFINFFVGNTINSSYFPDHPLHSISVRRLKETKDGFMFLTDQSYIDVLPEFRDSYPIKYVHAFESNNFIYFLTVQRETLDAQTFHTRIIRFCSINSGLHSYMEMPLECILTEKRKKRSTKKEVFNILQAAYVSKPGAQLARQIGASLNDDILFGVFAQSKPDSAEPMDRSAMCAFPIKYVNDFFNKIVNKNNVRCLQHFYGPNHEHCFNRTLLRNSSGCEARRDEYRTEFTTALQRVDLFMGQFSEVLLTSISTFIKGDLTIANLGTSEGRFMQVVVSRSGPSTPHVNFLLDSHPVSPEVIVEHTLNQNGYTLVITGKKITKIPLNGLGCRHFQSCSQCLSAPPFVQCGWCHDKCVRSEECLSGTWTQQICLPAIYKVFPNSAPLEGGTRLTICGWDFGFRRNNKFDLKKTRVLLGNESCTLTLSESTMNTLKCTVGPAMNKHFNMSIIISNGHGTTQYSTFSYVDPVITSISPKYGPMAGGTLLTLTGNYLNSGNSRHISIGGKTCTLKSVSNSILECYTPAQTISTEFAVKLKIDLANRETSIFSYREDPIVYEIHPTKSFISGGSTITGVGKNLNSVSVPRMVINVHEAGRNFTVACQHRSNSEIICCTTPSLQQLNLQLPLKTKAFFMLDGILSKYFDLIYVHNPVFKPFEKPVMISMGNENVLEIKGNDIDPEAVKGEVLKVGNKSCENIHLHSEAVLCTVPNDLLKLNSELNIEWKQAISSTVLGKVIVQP

- binding [1]: binds weakly
Substance: full-length human hepatocyte growth factor (HGF), wild type (from UniProt P14210 32-728) (ligand)
- binding [2]: no binding (condition: in the absence of heparin)

From article PMC8249616
